Results of single-concentration screens

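Growth of Mycobacterium tuberculosis over 4 days (cholesterol / DPPC medium with tyloxapol); the read-out is not stated. Tested at 500 µM. Direction is inferred from retests: higher values go with more growth inhibition. Of about 18,000 compounds tested this way, about 900 (5%) reached 50% or more in at least one test.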

Values are the deposited “Percent Effect”, in %. The record does not define 0% and 100%; most values in the screen are far below 50% and negative numbers occur (in some assays of this library far below -100). This is an unselected part of the compounds tested.

SMILES	Percent Effect
COc1ccc(OCCN2CCNCC2)cc1	7.682
O=C(CN(Cc1ccsc1)C1CC1)N1CCNC1=O	-21.75
CC(C)(CO)NC(=O)Nc1cccc2cccnc12	16.93
CCN(C(=O)Cc1csc(N2CCCC2=O)n1)C1CC1	11.13
O=C(NCC(F)(F)F)C1CCN(CC(F)F)CC1	8.46
CN(C(=O)C1CCOC1)c1ncc(Cl)cc1Cl (stereo unspecified)	0.3257
CCN1CCN(CC(=O)NC(C)Cn2cncn2)CC1 (stereo unspecified)	5.477
CC(C)NC(=O)c1ccc(CN2CCCC2)cc1	5.707
CC(CNc1cccc(F)c1C#N)S(N)(=O)=O (stereo unspecified)	5.203
CN(C)C1CN(C(=O)Nc2cccc(OCCF)c2)C1	12.68
COCCNC(=O)CNC(=O)c1cc(C)cc(C)c1Br	-0.4464
CC(C)N(C)S(=O)(=O)N(C)Cc1ccc(Br)o1	83.9
CC(C1CCNCC1)N1CCN(C)CC1 (stereo unspecified)	-2.369
Cc1nnc(CCNC(=O)[C@@H](N)C(C)(C)C)s1	8.109
Cc1ccc(C(C)C)c(OCC(O)CNCCO)c1 (stereo unspecified)	77.78
COCCCNC(=O)c1cc(S(C)(=O)=O)ccc1C	12.07
CCc1nnc(CN)s1	8.074
Cn1ncnc1COc1ccc(C#N)c(Cl)c1	-6.469
COCc1nn(Cc2cccc(C#N)c2)c(=O)o1	30.81
CNC(=O)c1cccc(NCCN2CCCC(C)C2)n1 (stereo unspecified)	-1.454
CNc1nc(NC2CCS(=O)(=O)C2)ncc1Br (stereo unspecified)	1.077
Cc1scc(C(=O)N2CCCN(C)CC2)c1C	15.15
COc1ccc(CNC(=O)CCCc2cccs2)cn1	-13.34
Cc1nn(C)c(C)c1CCC(=O)N1C[C@H]2CC[C@@H](C1)N2	4.762
CC(=O)COC(=O)CNC(=O)c1ccc(Br)cc1	-5.241
OC1CNCCNC1	-16.52
CS(=O)(=O)c1ccc(C(=O)NCCn2ccnc2)cc1	5.098
COCCn1cnnc1CN(C)Cc1nc(C)no1	-1.733
NS(=O)(=O)CC1CCOCC1	6.319
Cn1cc(C(N)CN)cn1 (stereo unspecified)	4.995
CN(CC(N)=O)C(=O)Cc1cnn(-c2ccccc2)c1	-17.93
CNCc1ccc(Cn2cncn2)cc1	8.558
Cc1nn(C)c2nc(NCCC(=O)N3CCCC3)sc12	24.31
CC(C)(C)OC(=O)N1CC2(C1)NCCc1[nH]cnc12	2.076
CN1CCCC1C(=O)N1CCNCC1 (stereo unspecified)	-8.303
c1coc(C2COCCN2)c1 (stereo unspecified)	-3.143
O=S(=O)(c1ccco1)N1CCOCc2ccccc21	47.78
CC(=O)N(CCc1ccccc1)Cc1ccncc1	-1.363
Cc1ccc2nc(CN3CCC[C@H]3CO)cc(O)c2c1	-20.06
COC(=O)C(Nc1cnn(C)c1)c1ccccc1F (stereo unspecified)	-2.412
CC(C)(N)CNS(=O)(=O)c1ccc(F)c(Cl)c1	4.462
O=C(NCC1COCCO1)N(Cc1cccs1)C1CC1 (stereo unspecified)	18.47
COc1nc(N)cc(=O)[nH]1	-19.45
CC(C)(C)[C@H](N)CO	-24.21
CN(C)S(=O)(=O)NCCN	12.73
OC(COc1ccc2c(c1)OCO2)CN1CCCCC1 (stereo unspecified)	24.31
CCOCCC(=O)NC(C)Cn1nc(C)cc1C (stereo unspecified)	1.225
OCC1CCC2(CCCC2)CN1 (stereo unspecified)	5.982
Cn1ccc(NC(=O)c2ccnn2C)n1	23.26

The values are deposited in ChEMBL (CHEMBL3988442, “University of Dundee, Small-Polar-MMV Screening Library” (2021)).